Values quoted from earlier work in patent US20220298160A1, “COMPOUNDS USEFUL IN HIV THERAPY” (priority 2019, published 2022).
Some results were stated once for a whole list of compounds, not compound by compound. At least one compound was matched to its structure with a doubt left.

Tested on: M184V mutation
Settings: M184V mutation selected on a regimen containing 3TC/FTC; cited from earlier work

Question: Which “reduction of susceptibility by M184V mutation” value does the source give for `Nc1ccn([C@@H]2CS[C@H](CO)O2)c(=O)n1` [Example 3TC, lamivudine] here?
Answer: Its value is over 100 fold.
